PubChem BioAssay AID1508597 | Cure First | 2020
Assay: 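Knock-downs altering ovarian cancer cell survival with or without PARP inhibitor rucaparib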 (primary screen). System: human ovarian carcinoma lines grown from tumours: OCI-P5x (papillary serous) and OCI-C5x (clear cell). Knock-down reagent: siRNA pool against human genes, 1.25 pmol siRNA per well. Time to read-out: 72 h or 96 h, depending on the cell culture. Conditions: rucaparib 20 µM (about IC30) or vehicle, present until read-out. Rucaparib or vehicle: Rucaparib. Cell line: OCI-C5x (clear cell). Measured: 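ATP luminescence measured at 72 or 96 h according to the culture, then normalised and expressed as percent viability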. Reading the numbers: viability, normalised: higher = more viable cells remaining. Call rule: 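Active when normalised viability falls below 80 percent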. Calls: active = viability under 80%; inactive = viability 80% or more.
This is a random part of the about 2,100 reagents, under one of the conditions tested. 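Calls flag viability under 80% in either arm, not effects specific to rucaparib; the reference for percent is not stated.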 Not stated in the record: the 100% reference.

RUVBL1 (RuvB like AAA ATPase 1), technical replicate 1 | viability, normalised (%): 43.9; Call: active
RUVBL1 (RuvB like AAA ATPase 1), technical replicate 2 | viability, normalised (%): 55.6; Call: active
RUVBL1 (RuvB like AAA ATPase 1), technical replicate 3 | viability, normalised (%): 39.5; Call: active
GATAD2A (GATA zinc finger domain containing 2A), technical replicate 1 | viability, normalised (%): 42.2; Call: active
GATAD2A (GATA zinc finger domain containing 2A), technical replicate 2 | viability, normalised (%): 44.6; Call: active
GATAD2A (GATA zinc finger domain containing 2A), technical replicate 3 | viability, normalised (%): 41.4; Call: active
F10 (coagulation factor X), technical replicate 1 | viability, normalised (%): 45.7; Call: active
F10 (coagulation factor X), technical replicate 2 | viability, normalised (%): 24; Call: active
F10 (coagulation factor X), technical replicate 3 | viability, normalised (%): 39.5; Call: active
XPC, technical replicate 1 | viability, normalised (%): 56.1; Call: active
XPC, technical replicate 2 | viability, normalised (%): 50.7; Call: active
XPC, technical replicate 3 | viability, normalised (%): 52.8; Call: active
UVRAG (UV radiation resistance associated), technical replicate 1 | viability, normalised (%): 63.3; Call: active
UVRAG (UV radiation resistance associated), technical replicate 2 | viability, normalised (%): 68.8; Call: active
UVRAG (UV radiation resistance associated), technical replicate 3 | viability, normalised (%): 63.1; Call: active
NLGN1 (neuroligin 1), technical replicate 1 | viability, normalised (%): 28.9; Call: active
NLGN1 (neuroligin 1), technical replicate 2 | viability, normalised (%): 24.8; Call: active
NLGN1 (neuroligin 1), technical replicate 3 | viability, normalised (%): 31.3; Call: active
CDK3 (cyclin dependent kinase 3), technical replicate 1 | viability, normalised (%): 50.6; Call: active
CDK3 (cyclin dependent kinase 3), technical replicate 2 | viability, normalised (%): 51.7; Call: active
CDK3 (cyclin dependent kinase 3), technical replicate 3 | viability, normalised (%): 56.6; Call: active
BRPF3 (bromodomain and PHD finger containing 3), technical replicate 1 | viability, normalised (%): 56.7; Call: active
BRPF3 (bromodomain and PHD finger containing 3), technical replicate 2 | viability, normalised (%): 60.1; Call: active
BRPF3 (bromodomain and PHD finger containing 3), technical replicate 3 | viability, normalised (%): 48.9; Call: active

3 consecutive records from above:
XPC, technical replicate 3 | viability, normalised (%): 52.8; Call: active
UVRAG (UV radiation resistance associated), technical replicate 1 | viability, normalised (%): 63.3; Call: active
UVRAG (UV radiation resistance associated), technical replicate 2 | viability, normalised (%): 68.8; Call: active

The list goes on.
CLOCK (clock circadian regulator), technical replicate 1 | viability, normalised (%): 49.2; Call: active
CLOCK (clock circadian regulator), technical replicate 2 | viability, normalised (%): 42.2; Call: active
CLOCK (clock circadian regulator), technical replicate 3 | viability, normalised (%): 58.6; Call: active
GRK6 (G protein-coupled receptor kinase 6), technical replicate 1 | viability, normalised (%): 51.9; Call: active
GRK6 (G protein-coupled receptor kinase 6), technical replicate 2 | viability, normalised (%): 65.1; Call: active
GRK6 (G protein-coupled receptor kinase 6), technical replicate 3 | viability, normalised (%): 72.4; Call: active
PI4KA (phosphatidylinositol 4-kinase alpha), technical replicate 1 | viability, normalised (%): 55.6; Call: active
PI4KA (phosphatidylinositol 4-kinase alpha), technical replicate 2 | viability, normalised (%): 59; Call: active
PI4KA (phosphatidylinositol 4-kinase alpha), technical replicate 3 | viability, normalised (%): 65.3; Call: active
GTF2H1 (general transcription factor IIH subunit 1), technical replicate 1 | viability, normalised (%): 49.3; Call: active
GTF2H1 (general transcription factor IIH subunit 1), technical replicate 2 | viability, normalised (%): 32.5; Call: active
GTF2H1 (general transcription factor IIH subunit 1), technical replicate 3 | viability, normalised (%): 47.5; Call: active
KMT2B (lysine methyltransferase 2B), technical replicate 1 | viability, normalised (%): 43.7; Call: active
KMT2B (lysine methyltransferase 2B), technical replicate 2 | viability, normalised (%): 37.4; Call: active
KMT2B (lysine methyltransferase 2B), technical replicate 3 | viability, normalised (%): 45.1; Call: active
ZNF830 (zinc finger protein 830), technical replicate 1 | viability, normalised (%): 60.4; Call: active
ZNF830 (zinc finger protein 830), technical replicate 2 | viability, normalised (%): 75.8; Call: active
ZNF830 (zinc finger protein 830), technical replicate 3 | viability, normalised (%): 56; Call: active
